Values from PubChem BioAssay AID1508587 (Peter MacCallum Cancer Centre, 2020)
Aim: 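Knockdowns that add to vemurafenib's cut in melanoma glycolysis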 (follow-up of hits). Cell system: human WM266.4 melanoma cells with a BRAF V600 mutation. Reagents: single siRNA against human genes, 25 nM. Duration: 96 h. Treatment: vemurafenib 300 nM (about IC25), given 48 h after transfection for 48 h. Measured: 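Per-cell lactate from absorbance divided by DAPI nucleus counts, compared with and without vemurafenib, relative to non-targeting siRNA, mean of 2 replicates; nuclear counts also give cell number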. Reading the numbers: lactate per cell, drug vs no drug: higher = less drug-induced drop in lactate per cell; lactate per cell with vemurafenib: higher = more lactate per cell under drug. Call rule: 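a duplex is active when its lactate-per-cell ratio with versus without drug falls under 0.55, i.e. 2 SD below non-targeting; a gene is confirmed if 2 or more of 4 duplexes pass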.
Here is an unselected part of about 1,600 reagents tested. 623 of them (39%) count as active. 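Calls are for each duplex; lactate ratios contain extreme outliers.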 Unmarked entries are inactive. The numbers tell different reagents against one gene apart. Further read-outs or replicates are left out here. No sequences are given here.

{"Target gene": "LRG1", "reagent": 1, "lactate per cell, drug vs no drug": "0.46 (active)", "lactate per cell with vemurafenib": 0.93}
{"Target gene": "LRG1", "reagent": 2, "lactate per cell, drug vs no drug": "0.52 (active)", "lactate per cell with vemurafenib": 0.97}
{"Target gene": "LRG1", "reagent": 3, "lactate per cell, drug vs no drug": "0.52 (active)", "lactate per cell with vemurafenib": 2.04}
{"Target gene": "LRG1", "reagent": 4, "lactate per cell, drug vs no drug": 0.67, "lactate per cell with vemurafenib": 1.3}
{"Target gene": "PHYHD1", "reagent": 1, "lactate per cell, drug vs no drug": 0.61, "lactate per cell with vemurafenib": 1.19}
{"Target gene": "PHYHD1", "reagent": 2, "lactate per cell, drug vs no drug": "0.51 (active)", "lactate per cell with vemurafenib": 1.13}
{"Target gene": "PHYHD1", "reagent": 3, "lactate per cell, drug vs no drug": 0.89, "lactate per cell with vemurafenib": 2.88}
{"Target gene": "PHYHD1", "reagent": 4, "lactate per cell, drug vs no drug": 0.55, "lactate per cell with vemurafenib": 0.97}
{"Target gene": "U2SURP", "reagent": 1, "lactate per cell, drug vs no drug": "0.52 (active)", "lactate per cell with vemurafenib": 1.08}
{"Target gene": "U2SURP", "reagent": 2, "lactate per cell, drug vs no drug": 0.56, "lactate per cell with vemurafenib": 2.7}
{"Target gene": "U2SURP", "reagent": 3, "lactate per cell, drug vs no drug": 0.82, "lactate per cell with vemurafenib": 1.02}
{"Target gene": "U2SURP", "reagent": 4, "lactate per cell, drug vs no drug": 0.7, "lactate per cell with vemurafenib": 1.19}
{"Target gene": "MTO1", "reagent": 1, "lactate per cell, drug vs no drug": 0.56, "lactate per cell with vemurafenib": 1.63}
{"Target gene": "MTO1", "reagent": 2, "lactate per cell, drug vs no drug": 0.62, "lactate per cell with vemurafenib": 0.96}
{"Target gene": "MTO1", "reagent": 3, "lactate per cell, drug vs no drug": "0.52 (active)", "lactate per cell with vemurafenib": 0.62}
{"Target gene": "MTO1", "reagent": 4, "lactate per cell, drug vs no drug": "0.44 (active)", "lactate per cell with vemurafenib": 1.06}
{"Target gene": "MFAP3", "reagent": 1, "lactate per cell, drug vs no drug": "0.53 (active)", "lactate per cell with vemurafenib": 1.27}
{"Target gene": "MFAP3", "reagent": 2, "lactate per cell, drug vs no drug": 0.74, "lactate per cell with vemurafenib": 1.78}
{"Target gene": "MFAP3", "reagent": 3, "lactate per cell, drug vs no drug": 0.78, "lactate per cell with vemurafenib": 1.08}
{"Target gene": "MFAP3", "reagent": 4, "lactate per cell, drug vs no drug": 0.74, "lactate per cell with vemurafenib": 1.17}
{"Target gene": "AGAP4", "reagent": 1, "lactate per cell, drug vs no drug": "0.36 (active)", "lactate per cell with vemurafenib": 0.54}
{"Target gene": "AGAP4", "reagent": 2, "lactate per cell, drug vs no drug": 0.71, "lactate per cell with vemurafenib": 3.08}
{"Target gene": "AGAP4", "reagent": 3, "lactate per cell, drug vs no drug": 0.72, "lactate per cell with vemurafenib": 1.14}
{"Target gene": "AGAP4", "reagent": 4, "lactate per cell, drug vs no drug": 0.57, "lactate per cell with vemurafenib": 1.58}
{"Target gene": "FOXO4", "reagent": 1, "lactate per cell, drug vs no drug": "0.37 (active)", "lactate per cell with vemurafenib": 0.6}
{"Target gene": "FOXO4", "reagent": 2, "lactate per cell, drug vs no drug": 0.55, "lactate per cell with vemurafenib": 1.1}
{"Target gene": "FOXO4", "reagent": 3, "lactate per cell, drug vs no drug": "0.42 (active)", "lactate per cell with vemurafenib": 0.98}
{"Target gene": "FOXO4", "reagent": 4, "lactate per cell, drug vs no drug": 0.57, "lactate per cell with vemurafenib": 1.29}

A run of entries taken from the entries so far, as a working copy:
{"Target gene": "MFAP3", "reagent": 3, "lactate per cell, drug vs no drug": 0.78, "lactate per cell with vemurafenib": 1.08}
{"Target gene": "MFAP3", "reagent": 4, "lactate per cell, drug vs no drug": 0.74, "lactate per cell with vemurafenib": 1.17}
